These results are taken from article PMC12856293 (The Journal of Biological Chemistry, 2025).

Sequences of proteins named here, by UniProt entry; tags and fusion partners are left off. Residues count along the entry.
UniProt P95232, 1-322: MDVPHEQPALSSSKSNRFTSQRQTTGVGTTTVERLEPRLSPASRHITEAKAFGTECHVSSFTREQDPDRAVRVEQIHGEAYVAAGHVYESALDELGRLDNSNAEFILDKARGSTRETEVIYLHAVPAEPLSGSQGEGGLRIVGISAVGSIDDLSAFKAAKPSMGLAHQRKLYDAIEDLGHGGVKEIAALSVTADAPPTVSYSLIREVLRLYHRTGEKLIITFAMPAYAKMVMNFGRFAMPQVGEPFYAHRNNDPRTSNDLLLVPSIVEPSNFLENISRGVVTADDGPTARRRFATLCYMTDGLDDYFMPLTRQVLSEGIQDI

The structures appear in SMILES notation.

The target of the test is T1, TyzAMtb (Mycobacterium tuberculosis, UniProt P95232).
T1 construct: gene Rv2336

As to `N[C@@H](Cc1ccc(O)cc1)C(=O)O` [L-Tyr], the “LC-QTOF endpoint product detection” value is recorded as “we detected substantial amounts of C12:0-Tyr, C12:0-tyrazolone”.
